Reference: article doi:10.1101/2021.08.12.456154
No constants are given. Whether binding was seen depends on the method and setting. Binding seen in cells or lysates may run through a third protein. Some binding calls cover weakened binding; strength is not graded here.

Sequences of proteins named here, by UniProt entry; tags and fusion partners are left off. Residues count along the entry.
UniProt Q05941, residues 23-502: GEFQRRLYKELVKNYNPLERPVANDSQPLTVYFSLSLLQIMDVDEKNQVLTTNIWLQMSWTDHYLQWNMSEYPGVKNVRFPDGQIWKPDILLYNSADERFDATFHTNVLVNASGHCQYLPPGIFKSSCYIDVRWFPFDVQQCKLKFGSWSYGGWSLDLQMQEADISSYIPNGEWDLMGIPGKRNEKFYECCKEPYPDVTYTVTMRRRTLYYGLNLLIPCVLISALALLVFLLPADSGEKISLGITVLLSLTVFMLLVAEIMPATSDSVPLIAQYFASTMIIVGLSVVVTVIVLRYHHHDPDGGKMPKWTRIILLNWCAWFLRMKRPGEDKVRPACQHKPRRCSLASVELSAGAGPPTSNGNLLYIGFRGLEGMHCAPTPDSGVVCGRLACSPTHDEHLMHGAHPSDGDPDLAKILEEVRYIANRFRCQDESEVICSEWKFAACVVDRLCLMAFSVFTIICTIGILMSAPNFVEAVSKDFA
UniProt Q5EGZ1, residues 18-805: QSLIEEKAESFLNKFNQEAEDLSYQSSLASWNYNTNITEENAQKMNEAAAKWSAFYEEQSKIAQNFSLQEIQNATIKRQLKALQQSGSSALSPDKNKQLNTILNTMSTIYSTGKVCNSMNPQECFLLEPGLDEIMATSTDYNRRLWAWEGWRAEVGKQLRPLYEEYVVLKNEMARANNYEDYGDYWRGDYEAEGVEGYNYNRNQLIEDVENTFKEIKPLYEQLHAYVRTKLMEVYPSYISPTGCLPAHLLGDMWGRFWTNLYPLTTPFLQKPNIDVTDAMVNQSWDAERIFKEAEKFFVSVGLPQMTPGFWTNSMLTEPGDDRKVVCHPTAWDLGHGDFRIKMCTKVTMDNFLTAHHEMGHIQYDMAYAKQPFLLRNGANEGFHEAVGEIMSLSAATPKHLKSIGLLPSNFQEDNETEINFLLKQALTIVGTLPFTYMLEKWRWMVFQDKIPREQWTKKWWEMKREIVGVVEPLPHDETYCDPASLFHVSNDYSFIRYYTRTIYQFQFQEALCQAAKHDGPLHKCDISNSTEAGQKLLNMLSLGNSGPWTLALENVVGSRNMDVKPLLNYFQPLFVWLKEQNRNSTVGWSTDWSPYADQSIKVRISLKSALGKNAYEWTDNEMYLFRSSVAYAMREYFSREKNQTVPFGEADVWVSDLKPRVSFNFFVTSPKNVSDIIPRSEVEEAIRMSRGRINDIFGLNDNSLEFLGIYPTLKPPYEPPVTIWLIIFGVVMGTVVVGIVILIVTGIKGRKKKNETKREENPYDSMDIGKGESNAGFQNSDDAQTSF

Target: α7 nicotinic acetylcholine receptor (rat (endogenous in PC12)) (UniProt Q05941)
Assay: co-IP

- binding: binds
Substance: angiotensin converting enzyme 2 (from UniProt Q5EGZ1 18-805)
